Values from PubChem BioAssay AID743454 (Peter MacCallum Cancer Centre, 2014).
The whole screen tested about 18,000 reagents; below is a random part of them. 450 of all reagents (2.5%) count as active. 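Single biological run; no consistent viability z cut-off exists, so the class columns, not z-scores, define the calls.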 Entries without a mark were called inactive.

Test: 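Genes whose loss kills vorinostat-resistant colon cancer cells under vorinostat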 (primary screen)
Cells: human HCT116-VR colon cancer cells, selected for vorinostat resistance
Reagent: siRNA pool against human genes, 40 nM siRNA pool
Duration: vorinostat for 24 h, read-out about 72 h after transfection
Conditions: vorinostat at 2.5 µM final
Measured: 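Cell viability by CellTiter-Fluor and caspase 3/7 activity by luminescence, each scaled to mock wells per plate, duplicates averaged, then robust z-scored over all plates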
Scale: viability robust z-score: higher = more viable cells than screen typical; caspase robust z-score: higher = more caspase 3/7 activity than screen typical
Hit rule: 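Hits are knock-downs in viability class RV1/RV2 or caspase class CA1/CA2, excluding ones that killed cells in the no-drug cell-count arm; hits then retested with single siRNAs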

Against H2BC3 (H2B clustered histone 3), the entry reads viability hit class no change; caspase hit class no change; viability robust z-score -0.27; caspase robust z-score 1.53.
SETDB1 (SET domain bifurcated histone lysine methyltransferase 1) scored viability hit class no change; caspase hit class no change; viability robust z-score -0.44; caspase robust z-score -0.26.
Depletion of SYVN1 (synoviolin 1) resulted in: viability hit class no change (active); caspase hit class CA2 (caspase activation); viability robust z-score -2.47; caspase robust z-score 15.8.
For NDUFB1 (NADH:ubiquinone oxidoreductase subunit B1), the entry reads viability hit class no change; caspase hit class no change; viability robust z-score 1.11; caspase robust z-score -0.37.
Knock-down of TWSG1 (twisted gastrulation BMP signaling modulator 1) came out at: viability hit class no change; caspase hit class no change; viability robust z-score -0.49; caspase robust z-score -0.55.
After knock-down of IZUMO1 (izumo sperm-oocyte fusion 1), the screen gave viability hit class no change; caspase hit class no change; viability robust z-score -0.66; caspase robust z-score -0.11.
For MORN1 (MORN repeat containing 1), the entry reads viability hit class no change; caspase hit class no change; viability robust z-score 0.46; caspase robust z-score 1.6.
Silencing of DHX32 (DEAH-box helicase 32 (putative)) came out at: viability hit class no change; caspase hit class no change; viability robust z-score -0.83; caspase robust z-score -0.74.
After knock-down of G2E3 (G2/M-phase specific E3 ubiquitin protein ligase) the results were viability hit class no change; caspase hit class no change; viability robust z-score 0.06; caspase robust z-score -0.76.
Against LCA5L (lebercilin LCA5 like) the deposit lists viability hit class no change; caspase hit class no change; viability robust z-score 0.81; caspase robust z-score -0.65.
Depletion of TPM1 (tropomyosin 1) resulted in: viability hit class no change; caspase hit class no change; viability robust z-score -0.12; caspase robust z-score -0.45.
After knock-down of PANK3 (pantothenate kinase 3) the results were viability hit class no change; caspase hit class no change; viability robust z-score 0.54; caspase robust z-score -0.78.

Already shown: 2 of the entries above.
G2E3 (G2/M-phase specific E3 ubiquitin protein ligase): viability hit class = no change; caspase hit class = no change; viability robust z-score = 0.06; caspase robust z-score = -0.76
LCA5L (lebercilin LCA5 like): viability hit class = no change; caspase hit class = no change; viability robust z-score = 0.81; caspase robust z-score = -0.65
